According to the supplement of paper PMC10849652:
The list shows a part of the results.

Protein sequences, listed by entry. Tags and fused reporters are not part of them. Lines headed by an entry give the natural chain unless they say otherwise; changes in a name come on top.
UniProt P54278: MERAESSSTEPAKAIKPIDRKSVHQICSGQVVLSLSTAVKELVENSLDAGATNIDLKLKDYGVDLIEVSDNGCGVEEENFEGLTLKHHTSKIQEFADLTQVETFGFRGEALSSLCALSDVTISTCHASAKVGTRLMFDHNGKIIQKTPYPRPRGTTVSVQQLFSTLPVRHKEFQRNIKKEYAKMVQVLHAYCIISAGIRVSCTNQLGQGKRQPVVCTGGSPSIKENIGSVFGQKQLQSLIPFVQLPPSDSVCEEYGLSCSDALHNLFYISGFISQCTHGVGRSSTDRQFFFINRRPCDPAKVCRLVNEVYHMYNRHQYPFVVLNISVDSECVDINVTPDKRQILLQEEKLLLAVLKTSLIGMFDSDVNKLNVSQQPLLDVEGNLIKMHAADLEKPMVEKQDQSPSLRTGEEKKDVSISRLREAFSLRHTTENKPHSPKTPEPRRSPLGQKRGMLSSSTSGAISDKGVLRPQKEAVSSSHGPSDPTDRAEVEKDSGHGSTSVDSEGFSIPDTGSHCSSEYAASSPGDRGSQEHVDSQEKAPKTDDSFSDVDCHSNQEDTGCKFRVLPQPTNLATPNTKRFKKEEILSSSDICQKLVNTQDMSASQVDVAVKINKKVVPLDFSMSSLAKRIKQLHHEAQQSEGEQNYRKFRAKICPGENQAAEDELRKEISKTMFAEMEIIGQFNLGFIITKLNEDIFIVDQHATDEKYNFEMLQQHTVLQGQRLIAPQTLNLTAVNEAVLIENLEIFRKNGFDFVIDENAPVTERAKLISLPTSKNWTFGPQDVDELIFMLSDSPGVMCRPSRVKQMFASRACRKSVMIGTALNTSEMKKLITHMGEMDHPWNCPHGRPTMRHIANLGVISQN
UniProt Q96HA1, whole entry, looked up: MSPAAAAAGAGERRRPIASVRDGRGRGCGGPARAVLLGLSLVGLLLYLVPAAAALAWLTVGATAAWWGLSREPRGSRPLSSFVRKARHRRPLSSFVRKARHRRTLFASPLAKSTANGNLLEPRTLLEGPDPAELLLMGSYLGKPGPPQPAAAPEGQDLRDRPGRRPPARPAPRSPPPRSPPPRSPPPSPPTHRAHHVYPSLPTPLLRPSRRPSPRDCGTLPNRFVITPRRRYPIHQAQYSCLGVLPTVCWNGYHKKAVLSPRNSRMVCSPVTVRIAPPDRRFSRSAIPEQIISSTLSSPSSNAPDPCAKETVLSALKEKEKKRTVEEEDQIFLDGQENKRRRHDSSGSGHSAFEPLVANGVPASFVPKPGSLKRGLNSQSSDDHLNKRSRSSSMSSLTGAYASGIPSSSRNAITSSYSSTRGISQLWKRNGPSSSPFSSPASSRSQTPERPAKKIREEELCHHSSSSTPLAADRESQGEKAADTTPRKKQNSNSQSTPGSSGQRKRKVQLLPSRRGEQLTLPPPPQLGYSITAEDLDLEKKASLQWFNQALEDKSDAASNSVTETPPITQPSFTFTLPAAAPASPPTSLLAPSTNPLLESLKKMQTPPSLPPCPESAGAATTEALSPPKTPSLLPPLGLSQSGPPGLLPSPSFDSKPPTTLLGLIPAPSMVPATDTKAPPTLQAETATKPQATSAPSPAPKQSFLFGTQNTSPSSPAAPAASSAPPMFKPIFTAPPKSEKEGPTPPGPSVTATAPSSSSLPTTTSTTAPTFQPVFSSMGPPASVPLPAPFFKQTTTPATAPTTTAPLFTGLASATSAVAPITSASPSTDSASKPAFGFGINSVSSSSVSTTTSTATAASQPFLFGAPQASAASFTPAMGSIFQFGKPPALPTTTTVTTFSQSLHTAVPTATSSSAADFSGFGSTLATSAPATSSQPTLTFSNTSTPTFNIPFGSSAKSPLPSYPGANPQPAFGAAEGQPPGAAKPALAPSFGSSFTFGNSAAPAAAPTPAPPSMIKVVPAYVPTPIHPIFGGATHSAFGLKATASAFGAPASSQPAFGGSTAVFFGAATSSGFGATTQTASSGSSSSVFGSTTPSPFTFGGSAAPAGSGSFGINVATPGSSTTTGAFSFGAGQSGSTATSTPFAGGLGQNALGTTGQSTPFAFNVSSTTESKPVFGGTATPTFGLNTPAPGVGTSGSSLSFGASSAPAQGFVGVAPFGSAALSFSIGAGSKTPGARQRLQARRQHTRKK
UniProt Q99541: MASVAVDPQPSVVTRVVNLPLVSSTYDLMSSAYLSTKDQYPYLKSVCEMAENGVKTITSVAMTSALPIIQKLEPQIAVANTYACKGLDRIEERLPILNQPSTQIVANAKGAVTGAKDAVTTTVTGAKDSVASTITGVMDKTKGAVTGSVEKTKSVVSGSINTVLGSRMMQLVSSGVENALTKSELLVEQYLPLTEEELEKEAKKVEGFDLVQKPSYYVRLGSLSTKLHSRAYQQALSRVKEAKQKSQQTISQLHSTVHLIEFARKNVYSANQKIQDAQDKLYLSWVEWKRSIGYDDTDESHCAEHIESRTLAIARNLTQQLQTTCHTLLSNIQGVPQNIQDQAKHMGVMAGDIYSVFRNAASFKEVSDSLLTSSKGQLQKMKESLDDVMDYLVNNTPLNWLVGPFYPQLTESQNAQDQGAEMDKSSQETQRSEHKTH
UniProt Q9NP80: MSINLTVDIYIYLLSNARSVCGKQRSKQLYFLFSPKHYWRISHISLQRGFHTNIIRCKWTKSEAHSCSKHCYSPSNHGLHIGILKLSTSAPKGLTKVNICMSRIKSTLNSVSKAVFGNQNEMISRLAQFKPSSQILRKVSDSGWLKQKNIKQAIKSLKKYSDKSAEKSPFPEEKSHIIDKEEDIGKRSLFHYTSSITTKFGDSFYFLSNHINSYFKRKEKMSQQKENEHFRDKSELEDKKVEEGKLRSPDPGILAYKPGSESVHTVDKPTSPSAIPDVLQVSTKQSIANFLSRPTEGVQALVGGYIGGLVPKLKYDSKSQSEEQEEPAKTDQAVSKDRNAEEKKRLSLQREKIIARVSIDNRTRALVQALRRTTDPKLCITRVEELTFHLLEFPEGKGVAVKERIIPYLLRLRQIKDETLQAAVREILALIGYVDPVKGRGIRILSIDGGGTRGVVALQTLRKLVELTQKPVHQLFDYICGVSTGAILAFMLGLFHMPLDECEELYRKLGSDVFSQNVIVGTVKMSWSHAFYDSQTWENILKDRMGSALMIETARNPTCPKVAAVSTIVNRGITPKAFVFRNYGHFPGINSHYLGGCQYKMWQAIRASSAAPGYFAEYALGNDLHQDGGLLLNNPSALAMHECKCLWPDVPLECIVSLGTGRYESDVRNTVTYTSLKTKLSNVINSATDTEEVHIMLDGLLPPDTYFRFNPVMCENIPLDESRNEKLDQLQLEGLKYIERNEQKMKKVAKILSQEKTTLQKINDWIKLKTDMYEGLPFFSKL
UniProt Q6P1K2: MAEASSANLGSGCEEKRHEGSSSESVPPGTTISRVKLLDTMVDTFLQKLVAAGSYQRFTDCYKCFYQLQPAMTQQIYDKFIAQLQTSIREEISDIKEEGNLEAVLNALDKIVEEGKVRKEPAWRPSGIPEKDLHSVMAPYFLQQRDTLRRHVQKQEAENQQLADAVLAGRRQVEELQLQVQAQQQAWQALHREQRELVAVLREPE
UniProt P28340: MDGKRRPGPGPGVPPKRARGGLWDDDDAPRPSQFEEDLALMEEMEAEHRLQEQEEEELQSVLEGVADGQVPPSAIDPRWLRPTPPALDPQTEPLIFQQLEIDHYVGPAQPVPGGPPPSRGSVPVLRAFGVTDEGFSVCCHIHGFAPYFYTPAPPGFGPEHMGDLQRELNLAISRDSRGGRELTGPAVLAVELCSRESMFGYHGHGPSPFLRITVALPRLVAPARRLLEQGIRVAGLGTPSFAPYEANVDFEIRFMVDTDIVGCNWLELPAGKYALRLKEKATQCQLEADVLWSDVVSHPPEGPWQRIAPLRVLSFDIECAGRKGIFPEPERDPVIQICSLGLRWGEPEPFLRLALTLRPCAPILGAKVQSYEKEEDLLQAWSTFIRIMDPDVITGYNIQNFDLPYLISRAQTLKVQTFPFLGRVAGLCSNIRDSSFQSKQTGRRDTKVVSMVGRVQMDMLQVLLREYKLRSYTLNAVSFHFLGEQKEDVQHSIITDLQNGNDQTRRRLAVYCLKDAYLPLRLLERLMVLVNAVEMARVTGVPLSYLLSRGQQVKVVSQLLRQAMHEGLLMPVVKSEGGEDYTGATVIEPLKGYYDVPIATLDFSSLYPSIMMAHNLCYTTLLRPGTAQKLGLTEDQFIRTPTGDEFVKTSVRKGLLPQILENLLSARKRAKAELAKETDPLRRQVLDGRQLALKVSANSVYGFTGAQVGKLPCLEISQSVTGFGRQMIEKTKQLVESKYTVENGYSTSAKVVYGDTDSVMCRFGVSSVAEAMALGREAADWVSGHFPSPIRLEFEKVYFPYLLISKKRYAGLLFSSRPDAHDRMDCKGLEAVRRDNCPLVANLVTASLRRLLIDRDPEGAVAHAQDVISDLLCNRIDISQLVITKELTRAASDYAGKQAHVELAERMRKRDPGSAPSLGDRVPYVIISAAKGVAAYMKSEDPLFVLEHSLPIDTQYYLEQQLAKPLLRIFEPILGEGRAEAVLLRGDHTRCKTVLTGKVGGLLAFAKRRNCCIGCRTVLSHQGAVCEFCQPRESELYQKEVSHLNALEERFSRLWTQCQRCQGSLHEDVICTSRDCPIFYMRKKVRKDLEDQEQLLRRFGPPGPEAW
UniProt Q9Y2S7: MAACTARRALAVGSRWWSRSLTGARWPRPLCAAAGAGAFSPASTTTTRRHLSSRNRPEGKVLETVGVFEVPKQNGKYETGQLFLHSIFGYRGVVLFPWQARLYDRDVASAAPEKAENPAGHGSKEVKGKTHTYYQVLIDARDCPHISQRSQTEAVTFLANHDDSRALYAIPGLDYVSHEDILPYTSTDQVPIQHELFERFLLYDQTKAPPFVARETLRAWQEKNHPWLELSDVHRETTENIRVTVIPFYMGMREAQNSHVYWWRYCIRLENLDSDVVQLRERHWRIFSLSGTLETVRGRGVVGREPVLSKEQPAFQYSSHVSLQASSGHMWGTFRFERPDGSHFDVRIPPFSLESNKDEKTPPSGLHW
UniProt Q8TCS8: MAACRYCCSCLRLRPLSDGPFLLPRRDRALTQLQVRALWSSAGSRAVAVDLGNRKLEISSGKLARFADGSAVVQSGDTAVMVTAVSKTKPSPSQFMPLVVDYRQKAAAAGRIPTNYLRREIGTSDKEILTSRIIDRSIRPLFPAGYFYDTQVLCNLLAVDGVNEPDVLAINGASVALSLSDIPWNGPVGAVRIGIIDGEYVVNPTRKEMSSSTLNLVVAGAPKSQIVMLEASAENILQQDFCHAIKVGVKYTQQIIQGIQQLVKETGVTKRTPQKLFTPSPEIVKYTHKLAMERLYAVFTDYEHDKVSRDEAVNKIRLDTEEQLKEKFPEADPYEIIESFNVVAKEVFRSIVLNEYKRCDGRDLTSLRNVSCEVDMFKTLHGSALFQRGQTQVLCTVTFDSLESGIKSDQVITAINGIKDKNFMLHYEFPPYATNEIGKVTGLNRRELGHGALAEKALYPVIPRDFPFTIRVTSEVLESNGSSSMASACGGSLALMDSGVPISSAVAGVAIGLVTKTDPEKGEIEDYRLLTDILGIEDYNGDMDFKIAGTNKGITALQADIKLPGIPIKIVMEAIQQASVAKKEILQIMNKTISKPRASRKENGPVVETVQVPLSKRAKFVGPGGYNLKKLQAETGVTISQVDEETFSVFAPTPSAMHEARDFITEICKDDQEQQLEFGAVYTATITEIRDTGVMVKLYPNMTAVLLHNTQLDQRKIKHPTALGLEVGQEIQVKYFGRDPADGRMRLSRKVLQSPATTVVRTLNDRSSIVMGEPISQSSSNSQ
UniProt Q6EEV4: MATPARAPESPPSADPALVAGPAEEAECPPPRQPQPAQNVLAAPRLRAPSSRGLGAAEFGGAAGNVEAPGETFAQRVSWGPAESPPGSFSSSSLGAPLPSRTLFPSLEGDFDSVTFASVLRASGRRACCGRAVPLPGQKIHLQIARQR
UniProt Q15181: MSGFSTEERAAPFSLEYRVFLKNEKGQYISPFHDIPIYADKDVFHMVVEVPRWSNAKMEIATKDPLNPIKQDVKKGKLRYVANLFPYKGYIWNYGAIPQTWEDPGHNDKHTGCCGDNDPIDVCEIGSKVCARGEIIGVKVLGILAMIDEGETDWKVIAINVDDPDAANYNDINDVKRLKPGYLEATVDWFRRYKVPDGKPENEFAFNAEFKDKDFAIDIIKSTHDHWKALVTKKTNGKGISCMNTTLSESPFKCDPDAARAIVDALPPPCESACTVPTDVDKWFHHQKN

Key:
Assay in all cases: log2 fold change, soluble protein after heating vs DMSO (PISA); higher = thermal stabilisation; K562 lysate, 10 uM; active = over 0.2 and 3.5 SD of the protein, either way, in both replicates (recomputed)
[1] = compound: CS(=O)(=O)CCNCc1ccc(-c2ccc3ncnc(Nc4ccc(OCc5cccc(F)c5)c(Cl)c4)c3c2)o1 [lapatinib]
In short: (§1)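 Values give the log-two fold change in thermal stability against solvent controls, from duplicates. Crude K562 extract at 1 mg/mL protein, made by dounce homogenisation in PBS pH 7.4 with 1 mM MgCl2, was treated with 10 μM compound for 30 min. After 3 min heating across 48°C-58°C, aliquots were pooled, adjusted to 0.5% NP-40 at 4°C and centrifuged at 21,000xg for 90 min. The supernatant was measured by TMTpro 16plex LC-MS/MS with channel sums equalised.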

[2] = compound: CS(=O)(=O)N1CCN(Cc2cc3nc(-c4cccc5[nH]ncc45)nc(N4CCOCC4)c3s2)CC1 [pictilisib]
In short: as §1

[3] = compound: C[C@@H](Oc1cc(-c2cnn(C3CCNCC3)c2)cnc1N)c1c(Cl)ccc(F)c1Cl [crizotinib]
In short: as §1

[4] = compound: C[C@H](C1=CC=C(C=C1)C(=O)NC2=C3C=CNC3=NC=C2)N
In short: as §1

[5] = compound: C[C@H](Nc1ncnc2nc[nH]c12)c1cc2cccc(Cl)c2c(=O)n1-c1ccccc1 [duvelisib]
In short: as §1

[6] = compound: Cc1cc(Nc2cc(CN3CCOCC3)c3nc(C)c(Cc4ccc(Cl)cc4F)n3n2)n[nH]1 [gandotinib]
In short: as §1

[7] = compound: Cc1cc(Nc2cc(N3CCN(C)CC3)nc(Sc3ccc(NC(=O)C4CC4)cc3)n2)n[nH]1 [tozasertib]
In short: as §1

[8] = compound: Cc1ccc(-n2nc(C(C)(C)C)cc2NC(=O)Nc2ccc(OCCN3CCOCC3)c3ccccc23)cc1 [doramapimod]
In short: as §1

[9] = compound: Cc1ccc(NC(=O)c2ccc(CN3CC[C@H](N(C)C)C3)c(C(F)(F)F)c2)cc1Nc1nccc(-c2cncnc2)n1 [bafetinib]
In short: as §1

[10] = compound: Cc1cccc(CC(=O)N2CCc3c2ccc(-c2cn(C)c4ncnc(N)c24)c3F)n1
In short: as §1

[11] = compound: Cc1cn(-c2cc(NC(=O)c3ccc(C)c(Nc4nccc(-c5cccnc5)n4)c3)cc(C(F)(F)F)c2)cn1 [nilotinib]
In short: as §1

[12] = compound: Cc1nc(Nc2n[nH]c3c2CN(C(=O)N[C@H](CN(C)C)c2ccccc2)C3(C)C)c2sccc2n1
In short: as §1

[13] = compound: Cc1nc(Nc2ncc(C(=O)Nc3c(C)cccc3Cl)s2)cc(N2CCN(CCO)CC2)n1 [dasatinib]
In short: as §1

[14] = compound: Cc1ncc(-c2ccnc(Nc3ccc(S(C)(=O)=O)cc3)n2)n1C(C)C
In short: as §1

[15] = compound: Cn1cc(-c2ccc3c(c2)CCN3C(=O)Cc2cccc(C(F)(F)F)c2)c2c(N)ncnc21
In short: as §1

[16] = compound: Cn1cc(CNCC2CCN(c3ncc(C(=O)NO)cn3)CC2)c2ccccc21 [quisinostat]
In short: as §1

[17] = compound: Cn1cncc1[C@@](N)(c1ccc(Cl)cc1)c1ccc2c(c1)c(-c1cccc(Cl)c1)cc(=O)n2C [tipifarnib]
In short: as §1

[18] = compound: NC(=O)Nc1cc(-c2cccc(F)c2)sc1C(=O)N[C@H]1CCCNC1
In short: as §1

[19] = compound: NC(=O)c1cnc(N[C@@H]2CCCC[C@@H]2N)nc1Nc1cccc(-n2nccn2)c1
In short: as §1

[20] = compound: NC1(c2ccc(-c3nc4ccn5c(=O)[nH]nc5c4cc3-c3ccccc3)cc2)CCC1
In short: as §1

Target	log2 fold change [1]	log2 fold change [2]	log2 fold change [3]	log2 fold change [4]	log2 fold change [5]	log2 fold change [6]	log2 fold change [7]	log2 fold change [8]	log2 fold change [9]	log2 fold change [10]	log2 fold change [11]	log2 fold change [12]	log2 fold change [13]	log2 fold change [14]	log2 fold change [15]	log2 fold change [16]	log2 fold change [17]	log2 fold change [18]	log2 fold change [19]	log2 fold change [20]
POLR2A, A0A590UJN4	inactive: -0.023	inactive: -0.022	inactive: -0.042	inactive: -0.011	inactive: -0.014	inactive: -0.034	inactive: -0.015	inactive: -0.041	inactive: -0.034	inactive: 0.067	inactive: -0.084	inactive: 0.016	inactive: -0.012	inactive: 0.027	inactive: 0.031	inactive: -0.037	inactive: -0.006	inactive: 0.004	inactive: 0.003	inactive: -0.028
PMS2 (UniProt P54278)	inactive: 0.016	inactive: 0.021	inactive: -0.038	inactive: -0.036	inactive: 0	inactive: -0.064	inactive: -0.014	inactive: -0.038	inactive: 0.021	inactive: 0.037	inactive: -0.024	inactive: -0.021	inactive: -0.1	inactive: 0.039	inactive: 0.047	inactive: -0.011	inactive: -0.078	inactive: 0.043	inactive: 0	inactive: -0.006
POM121 (UniProt Q96HA1)	inactive: -0.057	inactive: -0.094	inactive: 0.013	inactive: -0.062	inactive: 0.001	inactive: 0.077	inactive: 0.01	inactive: -0.058	inactive: 0.129	inactive: 0.049	–	–	inactive: -0.077	–	inactive: -0.122	inactive: -0.153	–	inactive: -0.005	inactive: 0.039	inactive: 0.042
POMGNT1 isoform 2 (UniProt Q8WZA1)	inactive: -0.02	inactive: 0.065	inactive: 0.009	inactive: -0.13	inactive: -0.151	inactive: 0.092	inactive: 0.06	inactive: 0.005	inactive: -0.231	inactive: 0.11	inactive: -0.088	inactive: 0.021	inactive: -0.206	inactive: -0.201	inactive: -0.008	inactive: -0.08	inactive: 0.006	inactive: 0.035	inactive: -0.014	inactive: 0.022
POLR2I (UniProt P36954)	inactive: 0.036	inactive: 0.006	inactive: 0.058	inactive: 0.05	inactive: 0.019	inactive: -0.034	–	inactive: 0.046	inactive: -0.127	inactive: -0.037	inactive: 0.065	inactive: 0.061	inactive: -0.164	inactive: 0.093	inactive: -0.034	inactive: 0.302	inactive: 0.085	inactive: -0.223	inactive: -0.068	inactive: 0.065
POLR2J (UniProt P52435)	inactive: 0.017	inactive: 0.011	inactive: -0.061	–	inactive: 0.063	–	inactive: 0.056	inactive: 0.045	inactive: -0.13	–	inactive: 0.052	inactive: -0.008	inactive: 0.01	inactive: 0.167	inactive: -0.027	inactive: 0.008	inactive: -0.03	inactive: 0.005	inactive: -0.117	inactive: -0.004
PLIN2 (UniProt Q99541)	inactive: -0.009	inactive: -0.041	inactive: -0.038	inactive: 0.023	inactive: 0.014	active: -0.254	inactive: 0.096	inactive: -0.003	inactive: -0.067	inactive: 0.011	inactive: 0.088	inactive: -0.012	inactive: -0.092	inactive: 0	inactive: 0.008	inactive: -0.031	inactive: -0.153	inactive: 0.038	inactive: -0.003	inactive: -0.018
PNPLA8 (UniProt Q9NP80)	inactive: -0.038	inactive: -0.017	inactive: -0.175	inactive: 0.066	inactive: -0.037	inactive: 0.076	inactive: 0.071	inactive: 0.072	inactive: -0.155	inactive: 0.147	inactive: -0.01	inactive: -0.052	inactive: -0.047	inactive: 0.047	inactive: 0.04	inactive: 0.023	inactive: -0.125	inactive: 0.023	inactive: 0.007	inactive: -0.018
PMF1 (UniProt Q6P1K2)	inactive: 0.015	inactive: 0.032	inactive: 0.018	inactive: 0.117	inactive: 0.04	inactive: -0.062	inactive: 0.051	inactive: 0.026	inactive: -0.01	inactive: -0.111	inactive: 0.018	inactive: -0.034	inactive: 0.044	inactive: -0.02	inactive: -0.052	inactive: 0.073	inactive: 0	inactive: -0.036	inactive: 0.011	inactive: 0.027
POLD1 (UniProt P28340)	inactive: -0.014	inactive: -0.021	inactive: -0.022	inactive: 0.013	inactive: -0.019	inactive: -0.061	inactive: 0.003	inactive: 0.02	inactive: -0.022	inactive: 0.017	inactive: 0.029	inactive: -0.004	inactive: -0.023	inactive: -0.011	inactive: 0.011	inactive: 0.01	inactive: -0.011	inactive: 0.015	inactive: 0.006	inactive: 0.003
PLXNA3 (UniProt P51805)	inactive: -0.086	inactive: 0.011	inactive: -0.266	inactive: -0.413	–	inactive: 0.114	inactive: 0.096	inactive: -0.004	inactive: -0.211	inactive: 0.196	–	–	–	–	–	inactive: -0.292	–	inactive: 0.131	inactive: 0.062	inactive: -0.079
POLDIP2 (UniProt Q9Y2S7)	inactive: 0.01	inactive: -0.081	inactive: -0.013	inactive: -0.001	inactive: -0.001	inactive: -0.023	inactive: 0.025	inactive: -0.014	inactive: -0.02	inactive: 0.007	inactive: -0.018	inactive: -0.031	inactive: 0.011	inactive: -0.004	inactive: -0.008	inactive: 0.046	inactive: -0.02	inactive: -0.002	inactive: 0.036	inactive: -0.004
POTEKP (UniProt Q9BYX7)	inactive: -0.195	inactive: -0.122	inactive: -0.113	–	inactive: 0.812	–	–	inactive: 1.05	inactive: 0.613	–	inactive: 1.59	inactive: -0.275	inactive: -0.472	inactive: 0.928	inactive: 0.815	inactive: -0.008	inactive: -0.049	inactive: 0.243	inactive: 0.947	inactive: 0.837
PNPT1 (UniProt Q8TCS8)	inactive: -0.024	inactive: 0.024	inactive: -0.014	inactive: -0.012	inactive: 0.012	inactive: 0.012	inactive: 0.006	inactive: 0.02	inactive: -0.02	inactive: -0.002	inactive: -0.012	inactive: 0.001	inactive: -0.001	inactive: -0.002	inactive: 0.013	inactive: -0.043	inactive: 0.002	inactive: 0.02	inactive: 0.017	inactive: -0.009
POLR1A (UniProt O95602)	inactive: -0.012	inactive: -0.078	inactive: -0.048	inactive: -0.018	inactive: 0.022	inactive: -0.021	inactive: -0.022	inactive: 0.028	inactive: -0.027	inactive: 0.036	inactive: -0.022	inactive: 0.103	inactive: -0.034	inactive: 0.075	inactive: 0.06	inactive: -0.005	inactive: 0.02	inactive: 0.051	inactive: -0.008	inactive: -0.066
POLR2M (UniProt Q6EEV4)	inactive: 0.047	inactive: -0.07	inactive: -0.064	inactive: 0.026	inactive: -0.049	inactive: -0.154	inactive: 0.055	inactive: -0.041	inactive: -0.116	inactive: 0.046	–	–	inactive: 0.02	–	inactive: -0.2	inactive: 0.011	–	inactive: 0.032	inactive: -0.015	inactive: 0.076
PPA1 (UniProt Q15181)	inactive: -0.013	inactive: 0.005	inactive: -0.008	inactive: 0.178	inactive: -0.014	inactive: -0.021	inactive: 0.015	inactive: -0.013	inactive: 0.037	inactive: -0.077	inactive: 0.008	inactive: -0.021	inactive: -0.019	inactive: 0.006	inactive: -0.001	inactive: 0.003	inactive: 0.03	inactive: 0.017	inactive: 0.001	inactive: 0.008

Part of the list above, limited to log2 fold change [10].
Target | log2 fold change [10]
PMS2 (UniProt P54278) | inactive: 0.037
POM121 (UniProt Q96HA1) | inactive: 0.049
